Experimental data published in PubChem BioAssay AID588497 (NMMLSC, 2011).
In all, about 360,000 compounds went through this assay and about 780 (0.22%) were called active. Inconclusive results, whose numbers are uncertain, are shown with a selection of clear calls. No stated cut-off is given here; in the data, active means inhibition above about 35% (passing the limit was not always enough); inconclusive means no clear call, values can overlap the other calls.

test system: Botulinum neurotoxin type F light chain protease (Clostridium botulinum); assay: BoNT/F light chain protease inhibitors, primary screen, biochemical, flow cytometry, MLPCN library (AID 588497); conditions: Multiplex microsphere protease cleavage assay, at 10 µM, stronger effect = higher value; further: plate controls were buffer without enzyme for full effect and enzyme alone for no effect

| SMILES | inhibition |
| --- | --- |
| CCn1c(=O)c([N+](=O)[O-])c(NCCCn2ccnc2)c2ccccc21 | inconclusive: -7.1% |
| O=C(NC(Nc1nc2ccc([N+](=O)[O-])cc2s1)(C(F)(F)F)C(F)(F)F)c1ccccc1Cl | inactive: -3.6% |
| COc1ccc(-n2c(C)cc(=O)[nH]c2=O)cc1 | inconclusive: 3.6% |
| CCN1CCN(c2nc3c(c(=O)[nH]c(=O)n3C)n2Cc2ccccc2F)CC1 | inconclusive: -14.8% |
| Nc1ccc2c(c1Cl)C(=O)c1ccc(N)c(Cl)c1C2=O | inconclusive: 5% |
| Cc1ccsc1/C=N/NC(=O)c1ccc2c(c1)OCCO2 | inconclusive: 22.7% |
| COc1cc(C2C(C#N)=C(N)N(N(C)C)C3=C2C(=O)CC(C)(C)C3)ccc1O (configuration not stated) | inconclusive: -8% |
| COc1ccc(C(=O)c2sc(Nc3ccccc3)c(C(=O)Nc3ccc(OC)c(OC)c3)c2N)cc1 | inactive: 1.5% |
| O=C(CN1CCN(c2ccc([N+](=O)[O-])cc2Cl)CC1)N1CCOCC1 | inconclusive: -54.1% |
| O=C(NCCc1cccs1)c1ccc(Cl)cc1 | inconclusive: 6.1% |
| CCOC(=O)CSc1nnc(NCC(=O)OC(C)C)c(=O)[nH]1 | inconclusive: 12.3% |
| O=C(O)c1cc(-c2cccs2)nc2ccc(F)cc12 | inconclusive: 7.1% |
| C/C(=N/Nc1ccccc1[N+](=O)[O-])c1ccc([N+](=O)[O-])cc1 | inconclusive: 0.1% |
| O=C(Nc1ccccc1Br)c1ccc(N2CCCC2=O)cc1 | inactive: 4% |
| CC(NC(=O)CCC(=O)N1CCCCCC1)c1ccccc1 (configuration not stated) | active: 36% |
| COc1cc2c(C#N)c(N3CCc4ccccc4C3)nc(N)c2c(N)n1 | inactive: -7.1% |
| Clc1cc2nc[nH]c2cc1Cl | inconclusive: 24.6% |
| Cn1c(C(=O)c2ccncc2)cc2ccccc21 | inconclusive: -10.9% |
| COc1ccc(C(=S)N2CCN(c3ccccc3C)CC2)cc1 | inconclusive: 8.5% |
| CC(NCC(O)COc1ccc2ccccc2c1)c1ccccc1 (configuration not stated) | inconclusive: -27% |
| COc1ccc(-n2ncc(C(=O)N3CCN(c4ccc(F)cc4)CC3)c2C)cc1 | inconclusive: 7.4% |
| CC(=O)c1cccc(S(=O)(=O)Nc2cccnc2)c1 | inactive: 0.7% |
| Cc1cccc2c(=O)cc(C)n(CC(N)=O)c12 | inconclusive: -11.5% |

| SMILES | inhibition |
| --- | --- |
| COC(=O)[C@@H]1C[C@H]2CC[C@H](O)C[C@H]2N1Cc1ccc(C(C)(C)C)cc1 | inactive: 3.3% |
| CCn1c(CCc2ccccc2)nnc1SCC(N)=O | active: 37.3% |
| CCN(CC)c1ccc(/C=C2\CCC(/C=C(/C#N)C(=O)Nc3ccccc3F)=C2N2CCOCC2)cc1 | inconclusive: -17.8% |
| O=C(Nn1cnnc1)c1ccccc1F | inconclusive: 5.7% |
| COc1ccc(-c2nnc(-c3cc4c(ccc5ccccc54)oc3=O)o2)cc1 | inactive: 0.9% |
| CCOc1ccc(/C(O)=C2/C(=O)C(=O)N(CCN(CC)CC)C2c2ccco2)cc1 (configuration not stated) | inactive: -5.3% |
| Cc1cccc(N2CCN(C(=O)COc3noc4nc(C)cc(C)c34)CC2C)c1 (configuration not stated) | inactive: 1.6% |
| CCOC(=O)c1c(NC(=O)C(C)OC(=O)c2ccc(NC(=O)CC#N)cc2)sc2c1CCCC2 (configuration not stated) | inactive: 8% |
| COc1ccc(Oc2nc3c(c(=O)n(C)c(=O)n3C)n2C)cc1 | inconclusive: 30.7% |
| O=C(Nc1ccc(S(=O)(=O)N2CCCCC2)cc1)C1CC(=O)N(Cc2ccccc2)C1 (configuration not stated) | inconclusive: -1% |
| CC1(C)CC(Nc2ccc(Nc3ccccc3)cc2)CC(C)(C)N1 | inconclusive: -159% |
| Cc1cc(C)c(C#N)c(N2CCN(c3ccccc3F)CC2)n1 | inconclusive: -35.7% |
| Cn1cnc2cc(OC(=O)c3ccccc3)ccc21 | inactive: -2.5% |
| O=C(Cc1cccs1)NCc1ccc(Cl)cc1Cl | inconclusive: 21.5% |
| COc1ccc(C(=O)c2sc3nc(C)cc(-c4cccs4)c3c2N)cc1OC | active: 47.2% |
| COc1ccc(C(O)P(=O)(OCCC(C)C)c2ccc(N(C)C)cc2)cc1OC (configuration not stated) | inconclusive: -152% |
| COCCNC(=O)CCC1CCN(C/C=C/c2ccccc2OC)CC1 | inconclusive: 26.6% |
| CCN(CC)C(=O)COc1ccc(/C=N/NC(=O)c2cc(-c3ccccc3OC)nc3ccccc23)cc1OC | inconclusive: 32.3% |
| CCOc1ccc(C(=O)CCC(=O)N(CC)CC(=O)NCc2cccs2)cc1 | inconclusive: 6.7% |
| COc1ccc(C(=O)COC(=O)CCNS(=O)(=O)c2ccccc2)c(OC)c1 | inactive: -11.2% |
| CCCN1C(=O)N(c2cccc(C)c2)C(C)(O)CC1(C)C (configuration not stated) | inconclusive: 54.8% |
| O=C(Nc1ccc(Br)cc1)C1CCCC1 | inconclusive: 9.8% |
| CS(=O)(=O)Nc1ccc(C(=O)NC2CCCC2)cc1 | inactive: -1% |

Quoted at random: 6 compounds from above, in no set order.

| SMILES | inhibition |
| --- | --- |
| COc1ccc(C(=O)COC(=O)CCNS(=O)(=O)c2ccccc2)c(OC)c1 | inactive: -11.2% |
| Cn1cnc2cc(OC(=O)c3ccccc3)ccc21 | inactive: -2.5% |
| COc1ccc(C(O)P(=O)(OCCC(C)C)c2ccc(N(C)C)cc2)cc1OC (configuration not stated) | inconclusive: -152% |
| COc1ccc(Oc2nc3c(c(=O)n(C)c(=O)n3C)n2C)cc1 | inconclusive: 30.7% |
| Cc1cccc(N2CCN(C(=O)COc3noc4nc(C)cc(C)c34)CC2C)c1 (configuration not stated) | inactive: 1.6% |
| CCOC(=O)c1c(NC(=O)C(C)OC(=O)c2ccc(NC(=O)CC#N)cc2)sc2c1CCCC2 (configuration not stated) | inactive: 8% |

Next entries.

| SMILES | inhibition |
| --- | --- |
| Cc1cc(=O)n2c3ccccc3n(C)c2n1 | inconclusive: -3.7% |
| COc1ccc(S(=O)(=O)NCc2ccccn2)c(C)c1C | inconclusive: 11.1% |
| COc1ccc(OC)c(N(CC(=O)NCCSCc2ccc(C)cc2)S(C)(=O)=O)c1 | inconclusive: 1.8% |
| CN(C)c1ccc(C(CNC(=O)COc2ccc(Cl)cc2)N2CCCC2)cc1 (configuration not stated) | inactive: 0.9% |
| Nc1c(C(=O)O)cnn1-c1ccc([N+](=O)[O-])cc1 | inconclusive: -11.9% |
| COC(=O)c1ccc(S(=O)(=O)N(Cc2ccccc2)Cc2ccccc2)n1C | inconclusive: 86.2% |
| CCn1c(C)cc(/C=C2/SC(=O)N(C(C)C(=O)OC)C2=O)c1C (configuration not stated) | inconclusive: 24.9% |
| O=C(CN1CCN(c2ccc(C(F)(F)F)cn2)CC1)NCc1ccc2c(c1)OCO2 | inconclusive: -63% |
| O=C(O)CCCN1C(=O)c2ccc(Oc3cccc([N+](=O)[O-])c3)cc2C1=O | inactive: -1.2% |
| CC(C)c1ccc(NC(=O)c2ccccc2NC(=O)C2CCCCC2C(=O)O)cc1 (configuration not stated) | inconclusive: 2.5% |
| O=C(Nc1ccc(C(O)c2ccccc2)cc1)[C@@H]1O[C@H](CO)[C@H](O)[C@H](O)[C@H]1O (some centres not stated) | inactive: -7.5% |
| Cc1ccccc1CC1(CO)CCCN(C(=O)Cc2c(F)ccc(F)c2F)C1 (configuration not stated) | inconclusive: 2.5% |
| COc1cccc(OC)c1C(=O)NCCOc1cc(C)cc(C)c1 | inconclusive: 3.9% |
| Cc1nonc1NC(=O)CSc1nnc(-c2ccoc2C)n1C | inconclusive: -24.2% |
| COC(=O)c1ccccc1N=Nc1c(N)n[nH]c1N | inconclusive: -75.7% |
| CC(C)(C)c1ccc(Cn2c(=O)cnc3ccccc32)cc1 | inactive: 0.3% |
| COc1cc2c(cc1OC)C(c1cccc(Cl)c1Cl)CC(=O)N2 (configuration not stated) | inconclusive: -5.1% |
| CCOC(=O)C1=c2s/c(=C\c3ccncc3)c(=O)n2C(N)=C(C(=O)OC)C1c1ccncc1 (configuration not stated) | inactive: -5.6% |
| CCCn1c(=O)c2[nH]cnc2n(-c2ccc(Cl)cc2)c1=O | inconclusive: 18.6% |
| O=C(CCl)NCCCN(C(=O)C(Cl)Cl)c1ccc([N+](=O)[O-])cc1 | inconclusive: -13.7% |
| O=C(C1CCCCN1S(=O)(=O)c1ccccc1)N1CCN(C(c2ccccc2)c2ccccc2)CC1 (configuration not stated) | inactive: -1% |
| CCOCCCNC(=O)Cn1cnc2c(cnn2-c2ccc(OC)cc2)c1=O | inconclusive: 6.1% |
| CC1(C)N=C(N)N=C(N)N1c1ccccc1 | inconclusive: 2.8% |

| SMILES | inhibition |
| --- | --- |
| NC(=O)c1c(NC(=O)c2ccccc2C(=O)O)sc2c1CCCC2 | inconclusive: 24.5% |
| Cc1ccc(C(=O)NCC(=O)NC2CCCCCC2)cc1 | inconclusive: 1.6% |
| S=c1[nH]ccn1-c1c(Cl)cccc1Cl | inconclusive: 19.7% |
| Cc1ccc(CNC(=O)C2CCCN2C(=O)Nc2ccccc2)cc1 (configuration not stated) | inconclusive: 1.4% |
| CCN(CC)CC(=O)n1c2c(c3ccccc31)CCCC2 | inactive: -6.5% |
| O=C(COc1ccc(C2SCCS2)cc1)Nc1ccc(Cl)cc1 | inconclusive: 29.8% |
| COc1cc(/C=C2\SC(=S)N(Nc3ccccc3)C2=O)ccc1O | inactive: 0.8% |
| COc1ccc(NC(=O)C2(C)Cc3c(-c4cccc(C(N)=O)c4)ccnc3O2)cn1 (configuration not stated) | inactive: -0.1% |
| O=C(Nc1cccc(-c2cnc3ccccc3n2)c1)c1ccncc1 | inactive: -1.1% |
| O=C1c2cccc3cccc(c23)C(=O)N1CC1CCN(CC(O)COc2ccc3ccccc3c2)CC1 (configuration not stated) | inactive: -1.8% |
| CN(C)CCCNC(=S)N(CCO)Cc1cc2cc3c(cc2[nH]c1=O)OCO3 | inconclusive: -11.2% |
| CC(=O)c1c(-c2ccccc2)c2cc(Cl)ccc2n(C)c1=O | inconclusive: 8.7% |
| C=CCN(CC=C)Cc1ccc(C(=O)OC)o1 | inconclusive: -89.9% |
| CC(C)NC(=O)c1ccc(C(C)C)cc1 | inconclusive: -11.1% |
| CCn1c(CSCc2ccc(C)cc2)n[nH]c1=S | inconclusive: 6.7% |
| CCOC(=O)C1CCN(C(=O)CNC(=O)Cn2c(C)cc3ccccc3c2=O)CC1 | inactive: 4.1% |
| COC(=O)CCCC1=CC2=C(c3ccccc3)C(=O)C(C)(OC(=O)C3CCCC3)C(=O)C2=CN1CCc1c[nH]c2ccccc12 (configuration not stated) | inactive: -11.3% |
| CCc1nc(SCc2ccccc2)n[nH]1 | inconclusive: 1.4% |
| CC(C)N(Cc1ccco1)/N=C/c1c(O)n(Cc2ccccc2)c(=O)[nH]c1=O | inconclusive: -0.8% |
| O=C(O)c1cc([N+](=O)[O-])ccc1Oc1ccccc1 | inactive: 3.5% |
| Cc1ccc(S(=O)(=O)/N=S(/c2ccccc2)C(C)C)cc1 (configuration not stated) | inconclusive: 58.9% |
| COc1ccc(C(C)=O)cc1COC(=O)c1ccc2c(c1)OCCO2 | inactive: 1.9% |
| COc1ccc(C(=O)NC(=S)Nc2ccc3oc(=O)ccc3c2)cc1OC | inactive: 7.6% |
